Data as given in PubChem BioAssay AID1259424 (University of Nebraska Medical Center, 2018)
Screen: 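Find knockdowns that reproduce the expression shifts seen after KSR1 loss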 (primary screen). Cell system: human HCT116 colon cancer cells. Reagent: siRNA pool against human genes, 50 nM. Detection: 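Log2 levels of six mRNAs (branched-DNA multiplex), adjusted by two reference genes and the non-targeting median, then scored against the average KSR1 knockdown pattern as Pearson r and euclidean distance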. Direction: mean correlation with KSR1 profile and KSR1 correlation: higher = expression change more like KSR1 knockdown; mean distance from KSR1 profile: higher = expression change less like KSR1 knockdown.
This is a random part of about 14,000 deposited reagents. 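Higher correlation or smaller distance means closer resemblance to KSR1 loss; control wells, including KSR1 knockdowns, recur on many plates.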 A reagent listed more than once was tested more than once; the source does not tell the runs apart. Reagent sequences are not shown. Not stated in the record: the time to read-out.

gene	mean correlation with KSR1 profile	mean distance from KSR1 profile	KSR1 correlation, replicate 1	KSR1 correlation, replicate 2	KSR1 correlation, replicate 3
OR2H1 (olfactory receptor family 2 subfamily H member 1)	0.852	2.65	0.791	0.885	0.922
SLC45A1	-0.815	2.35	-0.785	-0.789	-0.839
NIP7 (nucleolar pre-rRNA processing protein NIP7)	0.276	3.65	0.295	0.0871	0.375
SSBP3 (single stranded DNA binding protein 3)	-0.677	2.56	-0.421	-0.865	-0.554
CBR1 (carbonyl reductase 1)	-0.0925	2.52	0.00994	-0.176	-0.293
PSPN (persephin)	-0.124	1.33	0.242	-0.216	-0.238
SRSF8 (serine and arginine rich splicing factor 8)	-0.0218	1.42	-0.0545	0.0292	-0.126
GPR78 (G protein-coupled receptor 78)	0.231	3.43	0.239	0.331	0.0886
ANGPTL4 (angiopoietin like 4)	-0.173	1.47	0.12	-0.0618	-0.219
BMP6 (bone morphogenetic protein 6)	-0.213	1.63	-0.0279	-0.372	-0.165
TMEM39B (transmembrane protein 39B)	0.216	1.81	0.139	0.195	0.158
EVI2A (ecotropic viral integration site 2A)	0.236	1.71	0.453	-0.0226	0.168
ADCY3 (adenylate cyclase 3)	-0.398	2.83	-0.403	-0.491	-0.317
ST6GALNAC6 (ST6 N-acetylgalactosaminide alpha-2,6-sialyltransferase 6)	0.324	2.05	0.107	-0.493	0.133
MEX3B (mex-3 RNA binding family member B)	0.805	0.956	0.683	0.875	0.916
APBB1 (amyloid beta precursor protein binding family B member 1)	-0.272	2.6	0.0749	-0.19	-0.358
TUT1 (terminal uridylyl transferase 1, U6 snRNA-specific)	-0.712	2.59	-0.667	-0.697	-0.684
CANX (calnexin)	0.417	4.21	0.438	0.259	0.53
ABR (ABR activator of RhoGEF and GTPase)	-0.266	1.86	0.104	-0.193	-0.397
CENPI (centromere protein I)	-0.285	2.53	-0.312	-0.445	-0.301
CDKN1C (cyclin dependent kinase inhibitor 1C)	0.555	1.36	0.414	0.627	0.372
ARHGAP6 (Rho GTPase activating protein 6)	0.119	1.5	0.32	-0.00264	-0.147
ARID5B (AT-rich interaction domain 5B)	0.439	1.89	0.493	0.294	0.327
ERC1 (ELKS/RAB6-interacting/CAST family member 1)	-0.542	2.84	-0.398	-0.59	-0.54
HCG9 (HLA complex group 9)	0.633	1.78	0.402	0.649	0.646
MARK4 (microtubule affinity regulating kinase 4)	0.175	1.36	0.765	0.166	-0.302
ULBP3 (UL16 binding protein 3)	-0.0857	2.55	0.36	-0.309	-0.164
AP1M2 (adaptor related protein complex 1 subunit mu 2)	0.0703	1.66	0.259	-0.0868	0.102
ZER1 (zyg-11 related cell cycle regulator)	-0.537	2.15	-0.443	-0.441	-0.543
IGF1 (insulin like growth factor 1)	-0.0631	1.34	-0.131	-0.0459	0.0383
TMEM135 (transmembrane protein 135)	0.547	0.925	0.319	0.34	0.593
SDF4 (stromal cell derived factor 4)	-0.601	1.5	-0.866	-0.186	-0.423
LIMD2 (LIM domain containing 2)	0.467	3.23	0.388	0.205	0.638
HOXD11 (homeobox D11)	-0.0751	3.16	0.34	0.167	-0.388
JPT1 (Jupiter microtubule associated homolog 1)	-0.284	1.18	-0.87	0.316	0.0733
JPT1 (Jupiter microtubule associated homolog 1)	-0.344	1.32	-0.478	-0.369	0.0659
PTPRCAP	0.253	1.41	0.195	0.292	0.307
TGFBR2 (transforming growth factor beta receptor 2)	0.00493	2.04	0.376	-0.076	-0.665
USP47 (ubiquitin specific peptidase 47)	-0.813	2.97	-0.856	-0.731	-0.815
COX6A1 (cytochrome c oxidase subunit 6A1)	-0.263	1.76	-0.0666	-0.396	-0.547
NCOA5 (nuclear receptor coactivator 5)	-0.778	2.26	-0.677	-0.7	-0.655
SOX7 (SRY-box transcription factor 7)	0.748	2.74	0.662	0.701	0.547
ZNF19 (zinc finger protein 19)	0.077	3.04	-0.0734	-0.202	0.19
CDA (cytidine deaminase)	0.247	2.79	0.248	0.205	0.195
ZC3H7A (zinc finger CCCH-type containing 7A)	0.0251	1.5	-0.251	-0.436	-0.117
ARMH3 (armadillo like helical domain containing 3)	0.671	2.2	0.847	0.791	0.185
CDC123 (cell division cycle 123)	-0.416	3.35	-0.442	-0.513	-0.418
PIGX (phosphatidylinositol glycan anchor biosynthesis class X)	0.0528	2.41	0.206	0.535	-0.157
PARN (poly(A)-specific ribonuclease)	-0.404	2.3	-0.254	-0.309	-0.451
ADSS2 (adenylosuccinate synthase 2)	-0.317	2.63	-0.232	-0.608	-0.327

In a second layout: entries from further up.
{"gene":"SOX7 (SRY-box transcription factor 7)","mean correlation with KSR1 profile":0.748,"mean distance from KSR1 profile":2.74,"KSR1 correlation, replicate 1":0.662,"KSR1 correlation, replicate 2":0.701,"KSR1 correlation, replicate 3":0.547}
{"gene":"ZNF19 (zinc finger protein 19)","mean correlation with KSR1 profile":0.077,"mean distance from KSR1 profile":3.04,"KSR1 correlation, replicate 1":-0.0734,"KSR1 correlation, replicate 2":-0.202,"KSR1 correlation, replicate 3":0.19}
{"gene":"CDA (cytidine deaminase)","mean correlation with KSR1 profile":0.247,"mean distance from KSR1 profile":2.79,"KSR1 correlation, replicate 1":0.248,"KSR1 correlation, replicate 2":0.205,"KSR1 correlation, replicate 3":0.195}
{"gene":"ZC3H7A (zinc finger CCCH-type containing 7A)","mean correlation with KSR1 profile":0.0251,"mean distance from KSR1 profile":1.5,"KSR1 correlation, replicate 1":-0.251,"KSR1 correlation, replicate 2":-0.436,"KSR1 correlation, replicate 3":-0.117}
{"gene":"ARMH3 (armadillo like helical domain containing 3)","mean correlation with KSR1 profile":0.671,"mean distance from KSR1 profile":2.2,"KSR1 correlation, replicate 1":0.847,"KSR1 correlation, replicate 2":0.791,"KSR1 correlation, replicate 3":0.185}
{"gene":"CDC123 (cell division cycle 123)","mean correlation with KSR1 profile":-0.416,"mean distance from KSR1 profile":3.35,"KSR1 correlation, replicate 1":-0.442,"KSR1 correlation, replicate 2":-0.513,"KSR1 correlation, replicate 3":-0.418}
